Source: PubChem BioAssay AID686938 (Drosophila RNAi Screening Center, 2013)

Test: 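Looking for CRAC channel components and the factors controlling them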 (primary screen)
Cells: Drosophila S2R+ cells
Reagent: long dsRNA against Drosophila genes, about 0.25 µg dsRNA per well, roughly 10,000 cells
Timing: 5 days of knock-down before the calcium assay
Challenge: thapsigargin (SERCA pump blocker) to empty calcium stores; entry signal taken 4 min after adding it
Measurement: 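Duplicate raw fluo-4 intensities per well from a plate reader, at rest and four minutes after thapsigargin emptied calcium stores; entry-to-rest ratio filled for only some wells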
Direction: calcium entry signal: higher = stronger calcium signal after store depletion; resting calcium signal: higher = higher resting calcium signal
Units: calcium entry signal in fluorescence units; resting calcium signal in fluorescence units
Hit rule: 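Hit if the duplicate-averaged plate z-score for entry over resting signal is under −3; wells with weak total dye signal (Fmax z < −2) or more than 5 off-targets removed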
Meaning of the calls: active = strongly reduced calcium entry; inactive = no strong reduction
The deposit covers about 23,000 reagents; this is an unselected part of those with a known target gene and a result. Of all reagents, 75 (0.33%) were called active. 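Raw plate signals without normalisation; calls rest on plate z-scores that were not deposited; ratio present for only 364 wells.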 Unmarked entries are inactive. Names joined by + are all predicted targets of the reagent. Not stated in the record: the dose of the treatment.

CG11007 gave calcium entry signal, replicate 1 = 3.17e7; calcium entry signal, replicate 2 = 2.78e7; resting calcium signal, replicate 1 = 1.55e7; resting calcium signal, replicate 2 = 1.53e7. Depletion of Cubn resulted in: calcium entry signal, replicate 1 = 3.31e7; calcium entry signal, replicate 2 = 3.82e7; resting calcium signal, replicate 1 = 1.67e7; resting calcium signal, replicate 2 = 1.74e7. Silencing of CG18748 came out at: calcium entry signal, replicate 1 = 3.84e7; calcium entry signal, replicate 2 = 3.08e7; resting calcium signal, replicate 1 = 1.84e7; resting calcium signal, replicate 2 = 1.44e7. Silencing of PIG-Q resulted in: calcium entry signal, replicate 1 = 3.27e7; calcium entry signal, replicate 2 = 3.64e7; resting calcium signal, replicate 1 = 1.60e7; resting calcium signal, replicate 2 = 1.71e7. Against CG13869 + CG11099, the entry reads calcium entry signal, replicate 1 = 5.60e7; calcium entry signal, replicate 2 = 6.57e7; resting calcium signal, replicate 1 = 2.64e7; resting calcium signal, replicate 2 = 3.03e7. Silencing of CG12517 resulted in: calcium entry signal, replicate 1 = 3.63e7; calcium entry signal, replicate 2 = 4.22e7; resting calcium signal, replicate 1 = 1.72e7; resting calcium signal, replicate 2 = 1.93e7.

Depletion of stwl resulted in: calcium entry signal, replicate 1 = 2.24e7; calcium entry signal, replicate 2 = 3.35e7; resting calcium signal, replicate 1 = 1.12e7; resting calcium signal, replicate 2 = 2.13e7.

In a second layout: entries from further up.
gene knocked down | calcium entry signal, replicate 1 | calcium entry signal, replicate 2 | resting calcium signal, replicate 1 | resting calcium signal, replicate 2
CG13869 + CG11099 | 5.60e7 | 6.57e7 | 2.64e7 | 3.03e7
CG12517 | 3.63e7 | 4.22e7 | 1.72e7 | 1.93e7

Continued.
CG8958 scored calcium entry signal, replicate 1 = 3.82e7; calcium entry signal, replicate 2 = 3.43e7; resting calcium signal, replicate 1 = 1.96e7; resting calcium signal, replicate 2 = 1.57e7. Against CG34434, the entry reads calcium entry signal, replicate 1 = 2.49e7; calcium entry signal, replicate 2 = 2.84e7; resting calcium signal, replicate 1 = 1.31e7; resting calcium signal, replicate 2 = 1.43e7. Against CG12608, the values are calcium entry signal, replicate 1 = 2.60e7; calcium entry signal, replicate 2 = 2.79e7; resting calcium signal, replicate 1 = 1.27e7; resting calcium signal, replicate 2 = 1.50e7. For CG31948, the entry reads calcium entry signal, replicate 1 = 4.06e7; calcium entry signal, replicate 2 = 5.16e7; resting calcium signal, replicate 1 = 1.83e7; resting calcium signal, replicate 2 = 2.13e7. CG13841 gave calcium entry signal, replicate 1 = 2.14e7; calcium entry signal, replicate 2 = 2.66e7; resting calcium signal, replicate 1 = 1.42e7; resting calcium signal, replicate 2 = 1.46e7.
